5 sequences from article PMC10696525 can be followed below.

Sequences of proteins named here, by UniProt entry; tags and fusion partners are left off. A change or cut given only in a name is not applied to a line headed by its entry. Residues count along the entry.
UniProt Q13308, 31-1070: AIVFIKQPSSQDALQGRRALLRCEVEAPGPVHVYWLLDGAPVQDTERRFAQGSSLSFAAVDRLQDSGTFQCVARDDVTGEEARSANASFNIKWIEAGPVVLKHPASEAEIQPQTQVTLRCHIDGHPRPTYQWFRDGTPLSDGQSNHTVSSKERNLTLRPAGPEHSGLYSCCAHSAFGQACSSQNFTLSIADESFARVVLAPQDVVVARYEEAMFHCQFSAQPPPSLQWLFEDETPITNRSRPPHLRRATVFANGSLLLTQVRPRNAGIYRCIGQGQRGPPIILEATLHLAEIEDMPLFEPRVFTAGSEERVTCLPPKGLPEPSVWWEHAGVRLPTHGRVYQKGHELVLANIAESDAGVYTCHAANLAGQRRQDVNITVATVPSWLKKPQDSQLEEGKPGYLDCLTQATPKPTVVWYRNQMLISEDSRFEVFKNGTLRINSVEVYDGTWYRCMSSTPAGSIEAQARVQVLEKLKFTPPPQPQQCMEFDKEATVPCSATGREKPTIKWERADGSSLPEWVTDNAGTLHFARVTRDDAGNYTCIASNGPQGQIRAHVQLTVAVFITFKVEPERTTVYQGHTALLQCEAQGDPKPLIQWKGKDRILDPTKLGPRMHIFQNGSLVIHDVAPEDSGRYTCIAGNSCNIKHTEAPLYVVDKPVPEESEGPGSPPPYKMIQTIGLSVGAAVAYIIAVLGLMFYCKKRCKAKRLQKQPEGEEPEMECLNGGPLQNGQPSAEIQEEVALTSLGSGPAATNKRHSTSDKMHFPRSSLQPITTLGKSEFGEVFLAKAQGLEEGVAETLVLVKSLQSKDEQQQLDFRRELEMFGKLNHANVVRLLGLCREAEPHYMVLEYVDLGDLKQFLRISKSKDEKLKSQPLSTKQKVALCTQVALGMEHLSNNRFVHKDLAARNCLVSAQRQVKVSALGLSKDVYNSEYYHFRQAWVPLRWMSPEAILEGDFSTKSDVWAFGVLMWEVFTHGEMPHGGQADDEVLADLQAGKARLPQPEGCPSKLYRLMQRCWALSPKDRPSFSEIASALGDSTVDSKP
UniProt P08962, 2-238: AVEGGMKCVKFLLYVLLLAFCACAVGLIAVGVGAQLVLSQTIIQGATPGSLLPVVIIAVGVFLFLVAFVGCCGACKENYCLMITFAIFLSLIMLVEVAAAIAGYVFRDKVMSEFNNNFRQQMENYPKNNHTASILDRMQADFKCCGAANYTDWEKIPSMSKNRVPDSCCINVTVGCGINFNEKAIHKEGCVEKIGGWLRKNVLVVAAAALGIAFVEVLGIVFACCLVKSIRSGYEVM
UniProt P16422, 24-314: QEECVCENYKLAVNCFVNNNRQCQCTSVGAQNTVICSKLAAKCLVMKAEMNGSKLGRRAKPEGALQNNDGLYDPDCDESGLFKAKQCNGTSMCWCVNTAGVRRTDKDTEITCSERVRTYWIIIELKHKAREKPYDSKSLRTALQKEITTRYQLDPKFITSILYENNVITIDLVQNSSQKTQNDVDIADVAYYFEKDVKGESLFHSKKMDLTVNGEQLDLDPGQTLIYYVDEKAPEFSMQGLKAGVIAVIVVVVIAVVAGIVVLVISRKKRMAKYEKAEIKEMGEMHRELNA
UniProt Q04609: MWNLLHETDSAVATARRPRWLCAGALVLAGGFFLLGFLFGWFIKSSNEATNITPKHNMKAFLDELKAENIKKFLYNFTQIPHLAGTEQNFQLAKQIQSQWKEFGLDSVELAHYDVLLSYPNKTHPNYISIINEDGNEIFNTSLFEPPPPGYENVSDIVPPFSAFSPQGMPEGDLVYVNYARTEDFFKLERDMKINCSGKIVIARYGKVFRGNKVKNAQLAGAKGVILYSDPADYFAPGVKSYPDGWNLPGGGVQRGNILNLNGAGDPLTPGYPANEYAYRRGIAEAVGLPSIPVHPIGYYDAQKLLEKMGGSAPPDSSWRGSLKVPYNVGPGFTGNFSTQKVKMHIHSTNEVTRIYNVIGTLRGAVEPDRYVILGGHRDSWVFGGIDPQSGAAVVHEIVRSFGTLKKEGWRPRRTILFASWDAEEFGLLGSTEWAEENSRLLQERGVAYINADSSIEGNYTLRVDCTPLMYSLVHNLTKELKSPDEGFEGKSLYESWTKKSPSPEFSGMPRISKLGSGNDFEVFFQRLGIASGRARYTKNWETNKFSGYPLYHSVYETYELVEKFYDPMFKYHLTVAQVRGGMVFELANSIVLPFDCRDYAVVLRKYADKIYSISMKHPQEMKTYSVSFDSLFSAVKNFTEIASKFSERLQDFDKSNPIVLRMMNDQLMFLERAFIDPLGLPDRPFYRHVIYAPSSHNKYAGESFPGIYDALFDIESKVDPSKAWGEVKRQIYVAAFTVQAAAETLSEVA

Test in all cases: interferometric plasmonic microscopy (EVP capture on aptamer chip)
The target in data set [1] is PTK7 on extracellular vesicles (UniProt Q13308). The note with it: EVPs; Au chip modified with 1 uM aptamer, 5 uM TCEP, 1 uM MCH, rinsed with 1x PBS, blocked with 1% BSA; 15 min EVP binding; binding buffer; protein on the cell surface; single-stranded DNA.
Data set [2] addresses CD63 on extracellular vesicles (UniProt P08962). The note with it: MCF-7 EVPs, specificity checked against BSA-coated surface; Au chip modified with 1 uM aptamer, 5 uM TCEP, 1 uM MCH, rinsed with 1x PBS, blocked with 1% BSA; 15 min EVP binding; binding buffer; protein on the cell surface; single-stranded DNA.
For data set [3], the target named is EpCAM on extracellular vesicles (UniProt P16422). The note with it: EVPs; Au chip modified with 1 uM aptamer, 5 uM TCEP, 1 uM MCH, rinsed with 1x PBS, blocked with 1% BSA; 15 min EVP binding; binding buffer; protein on the cell surface; single-stranded DNA.
The target of data set [4] is PSMA on extracellular vesicles (UniProt Q04609). The note with it: EVPs, only exponential coefficients of the binding curves given, no Kd; Au chip modified with 1 uM aptamer, 5 uM TCEP, 1 uM MCH, rinsed with 1x PBS, blocked with 1% BSA; 15 min EVP binding; binding buffer; protein on the cell surface; single-stranded DNA.
In data set [5] the target is HER2 on extracellular vesicles (UniProt P04626). The note with it: EVPs on HER2-modified chip; Au chip modified with 1 uM aptamer, 5 uM TCEP, 1 uM MCH, rinsed with 1x PBS, blocked with 1% BSA; 15 min EVP binding; binding …; protein on the cell surface; single-stranded DNA.

Construct, isoform or probe ends are uncertain for at least one entry. Where cells or extracts were used, other partners may take part. For some assays here: At least one verdict rests on a figure or table, not on a statement of the authors.

Take “ATCTAACTGCTGCGCCGCCGGGAAAATACTGTACGGTTAGA [PTK7 aptamer]”: the binding result in data set [1] is on record as “binds”.
On to “CACCCCACCTCGCTCCCGTGACACTAATGCTA [CD63 aptamer]”, for which the binding result in data set [2] is listed as “binds”.
Consider “CACTACAGAGGTTGCGTCTGTCCCACGTTGTCATGGGGGGTTGGCCTG [EpCAM aptamer]”, for which, in data set [3], the binding result is on record as “binds”.
For “GCGTTTTCGCTTTTGCGTTTTGGGTCATCTGCTTACGATAGCAATGCT [PSMA aptamer]”, the binding result in data set [4] was “binds”.
On to “GGGCCGTCGAACACGAGCATGGTGCGTGGACCTAGGATGACCTGAGTACTGTCC [HER2 aptamer]”, for which, in data set [5], the binding result is given as “binds”.
